Structures can show the parent of a compound that is named as a salt. The list shows a part of the results. Repeats in this data set agree poorly, so a single value says little.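 Human fetal ventral-midbrain neural progenitor line ReNCell VM, differentiated without mitogens. Images stained for doublecortin (early neurons) or tyrosine hydroxylase (dopaminergic neurons) were scored by blinded raters against untreated wells (0 = no change). Repeats and both raters were averaged, and compounds averaging 2 or higher were picked as hits for retesting.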
system: ReNCell VM; assay: neuronal differentiation score (DCX+ cell fraction vs untreated, manual image score) (score (-3 to 3)); higher = more neuronal differentiation; conditions: library: Spectrum; 2 uM; 2 weeks

Neuronal differentiation score, inactive:
CCc1cn([C@H]2C[C@H](O)[C@@H](CO)O2)c(=O)[nH]c1=O 0, COc1ccc(Cl)cc1C(=O)NCCc1ccc(S(=O)(=O)NC(=O)NC2CCCCC2)cc1 0, COC(=O)C[C@H]1C(C)(C)[C@@H](OC(C)=O)[C@@H]2CC3=C4CC(=O)O[C@@H](c5ccoc5)[C@]4(C)CC[C@@H]3[C@@]1(C)C2=O 0, COC(=O)CC[C@@H](C)[C@H]1CC[C@H]2[C@@H]3[C@H](O)C[C@@H]4C[C@H](O)CC[C@]4(C)[C@H]3C[C@H](O)[C@]12C 0, CCC(=O)OCC(=O)[C@@]1(OC(=O)CC)[C@H](C)CC2C3C([C@@H](O)C[C@@]21C)[C@@]1(C)C=CC(=O)C=C1C[C@H]3Cl (stereo partly specified) 1, Oc1ccc(O)cc1 0, COC(=O)C[C@H]1C2(C)CC34OC5(C)O[C@@]6([C@H](OC(C)=O)C(OC(C)=O)[C@]7(C)C(/C(=C(/O)C(C)C)C(=O)O[C@H]7c7ccoc7)[C@@]6(O5)[C@H](OC(C)=O)[C@@]3(O)C2OC(=O)C(C)C)[C@]14C (stereo partly specified) 0, CC[C@H](CC[C@@H](C)[C@H]1CC[C@H]2[C@@H]3CC=C4C[C@@H](OC(C)=O)CC[C@]4(C)[C@H]3CC[C@]12C)C(C)C 0, CC(=O)O[C@@]12CO[C@@H]1C[C@H](O)[C@@]1(C)C(=O)[C@H](O)C3=C(C)[C@@H](OC(=O)[C@H](O)[C@@H](NC(=O)OC(C)(C)C)c4ccccc4)C[C@@](O)([C@@H](OC(=O)c4ccccc4)[C@H]21)C3(C)C 0, COc1cc(/C=C/C(=O)N2CCCCCCC2)cc(OC)c1OC 0, O=C1c2c(O)cccc2C([C@@H]2O[C@H](CO)[C@@H](O)[C@H](O)[C@H]2O)c2cc(CO)cc(O)c21 (stereo partly specified) 0, Cn1c(=O)c2c(ncn2C)n(C)c1=O 0, Nc1ncnc2c1ncn2[C@@H]1O[C@H](CO)[C@@H](O)[C@H]1O 0, OCc1cccnc1 0, COc1cc(OC)cc(OC)c1 0, O=C(O)c1cccnc1C(=O)O 0, Nc1nc(/C(=C/CC(=O)O)C(=O)N[C@@H]2C(=O)N3C(C(=O)O)=CCS[C@H]23)cs1 0, NC(=O)c1cc[n+](CC2=C(C(=O)[O-])N3C(=O)[C@@H](NC(=O)Cc4cccs4)[C@H]3SC2)cc1 0, CCCCOc1ccc(C(=O)CCN2CCCCC2)cc1 0, C[C@H]1[C@H](C)CC[C@]2(C(=O)O)CC[C@]3(C)C(=CC[C@@H]4[C@@]5(C)C[C@@H](O)[C@H](O)[C@@](C)(CO)[C@@H]5[C@H](O)C[C@]43C)[C@H]12 0, CC(=O)NCCCCCC(=O)O 0, Oc1c(Br)cc(Br)c2cccnc12 0, COC1=C[C@@H](C)[C@@H]2C[C@H]3OC(=O)C[C@H]4C(C)=C(OC)C(=O)[C@H]([C@@]2(C)C1=O)[C@@]34C 0, Cc1ccc(C(C)C)cc2c(C)ccc1-2 0, Cc1cc(=O)n(-c2ccccc2)n1C 0, CCCCC(CC)COc1ccc(-c2nc(-c3ccc(OC)cc3)nc(-c3ccc(OCC(CC)CCCC)cc3O)n2)c(O)c1 (stereo unspecified) 0, Cc1ncc(CSSCc2cnc(C)c(O)c2CO)c(CO)c1O 0, CN1CCN(C2=Nc3ccccc3Oc3ccc(Cl)cc32)CC1 0, OC[C@H]1O[C@@H](OCCc2ccc(O)cc2)[C@H](O)[C@@H](O)[C@@H]1O 0

system: ReNCell VM; assay: dopaminergic neuron differentiation score (TH+ cell fraction vs untreated, manual image score) (score (0 to 3)); higher = more TH+ dopaminergic neuron differentiation; conditions: library: LOPAC; 2 uM; 4 weeks; BDNF 10 ng/ml + GDNF 10 ng/ml

Dopaminergic neuron differentiation score, inactive:
CN(C)CCOC(=O)COc1ccc(Cl)cc1 [Centrophenoxine hydrochloride] 0, O=C(O)CCC(=O)N1CCC[C@H]1C(=O)O [N-Succinyl-L-proline] 0, C[C@@H]1O[C@@H]1P(=O)(O)O [Phosphomycin disodium] 0, O=c1c(O)c(-c2ccc(O)cc2O)oc2cc(O)cc(O)c12 [Morin] 0, Cc1nc(N=Nc2ccc(C(=O)O)cc2)c(COP(=O)(O)O)c(C=O)c1O 0

same assay, conditions: library: Prestwick; 2 uM; 4 weeks; BDNF 10 ng/ml + GDNF 10 ng/ml

Dopaminergic neuron differentiation score, inactive:
O=C(O)[C@H]1/C(=C/CO)O[C@@H]2CC(=O)N21 [Clavulanate potassium salt] 0, CCC(C)(CN(C)C)OC(=O)c1ccccc1 (stereo unspecified) [Amyleine hydrochloride] 0, CC(=O)NS(=O)(=O)c1ccc(N)cc1 [Sulfacetamide sodic hydrate] 0

same assay, conditions: library: Spectrum; 2 uM; 4 weeks; BDNF 10 ng/ml + GDNF 10 ng/ml

Dopaminergic neuron differentiation score, inactive:
CCc1cn([C@H]2C[C@H](O)[C@@H](CO)O2)c(=O)[nH]c1=O 0, COc1ccc(Cl)cc1C(=O)NCCc1ccc(S(=O)(=O)NC(=O)NC2CCCCC2)cc1 0, COC(=O)C[C@H]1C(C)(C)[C@@H](OC(C)=O)[C@@H]2CC3=C4CC(=O)O[C@@H](c5ccoc5)[C@]4(C)CC[C@@H]3[C@@]1(C)C2=O 0, COC(=O)CC[C@@H](C)[C@H]1CC[C@H]2[C@@H]3[C@H](O)C[C@@H]4C[C@H](O)CC[C@]4(C)[C@H]3C[C@H](O)[C@]12C 0, CCC(=O)OCC(=O)[C@@]1(OC(=O)CC)[C@H](C)CC2C3C([C@@H](O)C[C@@]21C)[C@@]1(C)C=CC(=O)C=C1C[C@H]3Cl (stereo partly specified) 0, Oc1ccc(O)cc1 0, COC(=O)C[C@H]1C2(C)CC34OC5(C)O[C@@]6([C@H](OC(C)=O)C(OC(C)=O)[C@]7(C)C(/C(=C(/O)C(C)C)C(=O)O[C@H]7c7ccoc7)[C@@]6(O5)[C@H](OC(C)=O)[C@@]3(O)C2OC(=O)C(C)C)[C@]14C (stereo partly specified) 0, CC[C@H](CC[C@@H](C)[C@H]1CC[C@H]2[C@@H]3CC=C4C[C@@H](OC(C)=O)CC[C@]4(C)[C@H]3CC[C@]12C)C(C)C 0, CC(=O)O[C@@]12CO[C@@H]1C[C@H](O)[C@@]1(C)C(=O)[C@H](O)C3=C(C)[C@@H](OC(=O)[C@H](O)[C@@H](NC(=O)OC(C)(C)C)c4ccccc4)C[C@@](O)([C@@H](OC(=O)c4ccccc4)[C@H]21)C3(C)C 0, COc1cc(/C=C/C(=O)N2CCCCCCC2)cc(OC)c1OC 0, O=C1c2c(O)cccc2C([C@@H]2O[C@H](CO)[C@@H](O)[C@H](O)[C@H]2O)c2cc(CO)cc(O)c21 (stereo partly specified) 0, Cn1c(=O)c2c(ncn2C)n(C)c1=O 0, Nc1ncnc2c1ncn2[C@@H]1O[C@H](CO)[C@@H](O)[C@H]1O 0, OCc1cccnc1 0, COc1cc(OC)cc(OC)c1 0, O=C(O)c1cccnc1C(=O)O 0, Nc1nc(/C(=C/CC(=O)O)C(=O)N[C@@H]2C(=O)N3C(C(=O)O)=CCS[C@H]23)cs1 0, NC(=O)c1cc[n+](CC2=C(C(=O)[O-])N3C(=O)[C@@H](NC(=O)Cc4cccs4)[C@H]3SC2)cc1 0, CCCCOc1ccc(C(=O)CCN2CCCCC2)cc1 0, C[C@H]1[C@H](C)CC[C@]2(C(=O)O)CC[C@]3(C)C(=CC[C@@H]4[C@@]5(C)C[C@@H](O)[C@H](O)[C@@](C)(CO)[C@@H]5[C@H](O)C[C@]43C)[C@H]12 0, CC(=O)NCCCCCC(=O)O 0, Oc1c(Br)cc(Br)c2cccnc12 0, COC1=C[C@@H](C)[C@@H]2C[C@H]3OC(=O)C[C@H]4C(C)=C(OC)C(=O)[C@H]([C@@]2(C)C1=O)[C@@]34C 0, Cc1ccc(C(C)C)cc2c(C)ccc1-2 0, Cc1cc(=O)n(-c2ccccc2)n1C 0, CCCCC(CC)COc1ccc(-c2nc(-c3ccc(OC)cc3)nc(-c3ccc(OCC(CC)CCCC)cc3O)n2)c(O)c1 (stereo unspecified) 0, Cc1ncc(CSSCc2cnc(C)c(O)c2CO)c(CO)c1O 0, CN1CCN(C2=Nc3ccccc3Oc3ccc(Cl)cc32)CC1 0, OC[C@H]1O[C@@H](OCCc2ccc(O)cc2)[C@H](O)[C@@H](O)[C@@H]1O 0

Reference: the supplement of paper PMC4635364
